In patent publication US20040208880A1:
Results are given in words; binding and its absence hold for the method and conditions named. For some assays here: In cells and extracts the contact can be indirect. Some entries that bind do so weakly or less than the wild type. Blank lines part the entries; values can stand above or below the substance they belong to.

Chains of the proteins cited; added tags and fusions are not shown. Lines headed by an entry give the natural chain unless they say otherwise; changes in a name come on top.
UniProt Q13153: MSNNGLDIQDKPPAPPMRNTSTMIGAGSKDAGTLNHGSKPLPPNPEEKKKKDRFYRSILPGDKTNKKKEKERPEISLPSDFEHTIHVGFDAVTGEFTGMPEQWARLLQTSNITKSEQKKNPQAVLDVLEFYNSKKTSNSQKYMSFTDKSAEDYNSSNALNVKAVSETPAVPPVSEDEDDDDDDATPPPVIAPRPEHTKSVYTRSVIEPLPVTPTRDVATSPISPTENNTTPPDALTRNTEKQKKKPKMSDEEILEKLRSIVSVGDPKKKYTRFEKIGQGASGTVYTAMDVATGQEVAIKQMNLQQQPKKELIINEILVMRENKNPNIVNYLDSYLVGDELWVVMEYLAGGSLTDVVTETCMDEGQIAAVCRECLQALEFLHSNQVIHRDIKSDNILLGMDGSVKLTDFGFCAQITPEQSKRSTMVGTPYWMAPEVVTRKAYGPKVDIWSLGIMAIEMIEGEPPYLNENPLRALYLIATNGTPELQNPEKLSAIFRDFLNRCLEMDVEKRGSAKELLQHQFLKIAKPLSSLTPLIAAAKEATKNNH
UniProt P03372: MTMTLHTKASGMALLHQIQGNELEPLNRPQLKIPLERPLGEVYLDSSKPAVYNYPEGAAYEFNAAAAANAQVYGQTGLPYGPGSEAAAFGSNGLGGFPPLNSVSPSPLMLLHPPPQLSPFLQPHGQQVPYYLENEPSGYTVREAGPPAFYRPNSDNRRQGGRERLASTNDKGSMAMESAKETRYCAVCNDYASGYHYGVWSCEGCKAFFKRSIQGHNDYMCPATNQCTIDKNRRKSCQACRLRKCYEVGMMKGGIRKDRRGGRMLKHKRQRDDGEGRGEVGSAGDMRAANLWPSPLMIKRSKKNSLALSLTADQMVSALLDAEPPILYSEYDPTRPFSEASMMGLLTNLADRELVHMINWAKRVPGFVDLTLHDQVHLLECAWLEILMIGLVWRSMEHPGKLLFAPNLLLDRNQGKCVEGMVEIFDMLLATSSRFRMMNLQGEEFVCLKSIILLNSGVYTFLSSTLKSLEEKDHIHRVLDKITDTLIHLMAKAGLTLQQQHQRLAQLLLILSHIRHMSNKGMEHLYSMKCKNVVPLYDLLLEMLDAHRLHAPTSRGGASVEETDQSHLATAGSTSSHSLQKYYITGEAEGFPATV
UniProt P63167: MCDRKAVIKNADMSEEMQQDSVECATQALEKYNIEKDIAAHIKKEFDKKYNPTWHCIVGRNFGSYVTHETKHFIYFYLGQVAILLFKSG
UniProt P61273: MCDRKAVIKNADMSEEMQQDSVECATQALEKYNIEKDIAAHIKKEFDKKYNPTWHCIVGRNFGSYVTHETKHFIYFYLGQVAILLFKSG

Experiments:
[1] = target: GBD-Pak1 (amino acids 1-270) (human); assay: yeast two-hybrid, library screen and one-on-one transformation
[2] = target: p21-activated protein kinase 1 (Pak1), full-length, amino acids 1-545 (human) (UniProt Q13153); assay: GST pull-down with in vitro translated 35S-Pak1
[3] = target: estrogen receptor alpha (ER), full-length (UniProt P03372); assay: GST pull-down with in vitro translated 35S-ER
[4] = target: dynein light chain-1/protein inhibitor of nitric oxide synthase (DLC1/PIN), amino acids 1-89 (human) (UniProt P63167); assay: GST-AB domain pull-down with in vitro translated 35S-labeled DLC1
[5] = target: dynein light chain-1/protein inhibitor of nitric oxide synthase (DLC1/PIN), amino acids 1-89 (human) (UniProt P63167); assay: GST pull-down, GST-ER deletion constructs with in vitro translated 35S-DLC1
[6] = target: p21-activated protein kinase 1 (Pak1), full-length, amino acids 1-545 (human) (UniProt Q13153); assay: GST-AB domain pull-down with in vitro translated 35S-labeled Pak1
[7] = target: dynein light chain-1/protein inhibitor of nitric oxide synthase (DLC1/PIN), amino acids 1-89 (human) (UniProt P63167); assay: GST pull-down with in vitro translated DLC1/PIN

binding [1]: binds
Substance: GAD-DLC1/PIN (from UniProt P61273 1-89)

binding [2]: binds
binding [3]: binds
Substance: GST-DLC1/PIN fusion protein (wild type) (from UniProt P61273 1-89)

binding [4]: binds
binding [5]: binds
binding [6]: binds
Substance: GST-ER AB domain (amino acid 1-180 of ER) (from UniProt P03372 1-180)

binding [7]: binds
Substance: GST-Pak1 PIX binding domain (amino acids 132-270) (from UniProt Q13153 132-270)

binding [7]: binds
Substance: GST-Pak1 fusion protein, wild-type (amino acids 1-545) (from UniProt Q13153 1-545) (enzyme)
